Laboratory results reported in PMC12715200.
Results are given in words; binding and its absence hold for the method and conditions named. Binding seen in cells or lysates may run through a third protein. Here binding means that the protein was enriched with, or labelled near, the bait; the list need not be complete. For part of these data: No binding means not detected with the bait. For part of these data: Tags and fused reporters may be left off the sequences shown.

By UniProt entry, the sequences of proteins in these tests, tags left out. Residues count along the entry.
UniProt Q8NC56: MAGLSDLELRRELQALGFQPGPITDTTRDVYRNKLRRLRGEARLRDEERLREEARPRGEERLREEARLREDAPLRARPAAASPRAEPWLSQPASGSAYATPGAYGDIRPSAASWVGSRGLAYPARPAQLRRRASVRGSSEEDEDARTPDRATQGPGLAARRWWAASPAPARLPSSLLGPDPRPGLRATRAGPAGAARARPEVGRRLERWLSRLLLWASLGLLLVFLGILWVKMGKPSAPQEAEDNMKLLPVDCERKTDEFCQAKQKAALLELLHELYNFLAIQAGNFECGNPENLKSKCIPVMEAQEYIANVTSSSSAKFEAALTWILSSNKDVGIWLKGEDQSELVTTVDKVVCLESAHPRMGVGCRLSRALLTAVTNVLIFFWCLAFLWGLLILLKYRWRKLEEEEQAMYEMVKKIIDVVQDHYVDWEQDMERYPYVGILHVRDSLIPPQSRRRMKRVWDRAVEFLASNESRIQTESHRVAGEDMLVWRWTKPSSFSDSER
UniProt P02545, residues 1-646: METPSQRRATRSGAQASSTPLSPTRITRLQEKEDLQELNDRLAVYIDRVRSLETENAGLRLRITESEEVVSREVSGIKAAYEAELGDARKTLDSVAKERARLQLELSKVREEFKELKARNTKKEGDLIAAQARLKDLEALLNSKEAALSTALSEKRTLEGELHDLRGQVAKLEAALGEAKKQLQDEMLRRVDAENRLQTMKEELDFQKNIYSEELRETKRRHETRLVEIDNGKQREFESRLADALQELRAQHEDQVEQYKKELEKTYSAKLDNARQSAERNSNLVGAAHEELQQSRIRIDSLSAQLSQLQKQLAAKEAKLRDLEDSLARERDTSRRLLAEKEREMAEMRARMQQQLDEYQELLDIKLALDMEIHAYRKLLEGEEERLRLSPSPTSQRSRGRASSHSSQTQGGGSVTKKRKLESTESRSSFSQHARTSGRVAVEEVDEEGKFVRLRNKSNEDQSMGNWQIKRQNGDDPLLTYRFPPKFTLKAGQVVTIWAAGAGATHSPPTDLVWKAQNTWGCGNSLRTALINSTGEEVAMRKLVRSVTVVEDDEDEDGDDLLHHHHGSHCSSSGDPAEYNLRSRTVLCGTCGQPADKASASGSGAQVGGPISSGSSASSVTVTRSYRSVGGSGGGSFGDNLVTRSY
UniProt Q14739: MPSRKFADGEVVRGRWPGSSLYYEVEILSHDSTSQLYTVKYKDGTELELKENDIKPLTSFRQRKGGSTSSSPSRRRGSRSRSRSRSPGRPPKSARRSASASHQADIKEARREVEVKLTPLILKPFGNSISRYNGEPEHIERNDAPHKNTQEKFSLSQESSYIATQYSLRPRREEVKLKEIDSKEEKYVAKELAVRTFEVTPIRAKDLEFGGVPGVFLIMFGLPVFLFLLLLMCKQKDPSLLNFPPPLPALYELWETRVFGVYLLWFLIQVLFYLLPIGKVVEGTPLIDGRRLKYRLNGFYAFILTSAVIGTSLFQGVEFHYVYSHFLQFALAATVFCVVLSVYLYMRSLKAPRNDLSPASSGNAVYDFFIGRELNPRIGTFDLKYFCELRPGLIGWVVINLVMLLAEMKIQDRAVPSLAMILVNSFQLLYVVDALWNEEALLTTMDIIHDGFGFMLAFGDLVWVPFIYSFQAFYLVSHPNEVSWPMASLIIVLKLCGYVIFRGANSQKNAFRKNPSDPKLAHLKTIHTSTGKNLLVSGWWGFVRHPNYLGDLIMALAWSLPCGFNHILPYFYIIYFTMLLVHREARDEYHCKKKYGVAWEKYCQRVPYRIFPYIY

B1: VPS4B (protein, UniProt O75351 1-444)
chain: MSSTSPNLQKAIDLASKAAQEDKAGNYEEALQLYQHAVQYFLHVVKYEAQGDKAKQSIRAKCTEYLDRAEKLKEYLKNKEKKAQKPVKEGQPSPADEKGNDSDGEGESDDPEKKKLQNQLQGAIVIERPNVKWSDVAGLEGAKEALKEAVILPIKFPHLFTGKRTPWRGILLFGPPGTGKSYLAKAVATEANNSTFFSISSSDLVSKWLGESEKLVKNLFQLARENKPSIIFIDEIDSLCGSRSENESEAARRIKTEFLVQMQGVGVDNDGILVLGATNIPWVLDSAIRRRFEKRIYIPLPEPHARAAMFKLHLGTTQNSLTEADFRELGRKTDGYSGADISIIVRDALMQPVRKVQSATHFKKVRGPSRADPNHLVDDLLTPCSPGDPGAIEMTWMDVPGDKLLEPVVSMSDMLRSLSNTKPTVNEHDLLKLKKFTEDFGQEG
B2: BROX (protein, UniProt Q5VW32 1-411)
chain: MTHWFHRNPLKATAPVSFNYYGVVTGPSASKICNDLRSSRARLLELFTDLSCNPEMMKNAADSYFSLLQGFINSLDESTQESKLRYIQNFKWTDTLQGQVPSAQQDAVFELISMGFNVALWYTKYASRLAGKENITEDEAKEVHRSLKIAAGIFKHLKESHLPKLITPAEKGRDLESRLIEAYVIQCQAEAQEVTIARAIELKHAPGLIAALAYETANFYQKADHTLSSLEPAYSAKWRKYLHLKMCFYTAYAYCYHGETLLASDKCGEAIRSLQEAEKLYAKAEALCKEYGETKGPGPTVKPSGHLFFRKLGNLVKNTLEKCQRENGFIYFQKIPTEAPQLELKANYGLVEPIPFEFPPTSVQWTPETLAAFDLTKRPKDDSTKPKPEEEVKPVKEPDIKPQKDTGCYIS
B3: CC2D1A (protein, UniProt Q6P1N0 1-951)
chain: MHKRKGPPGPPGRGAAAARQLGLLVDLSPDGLMIPEDGANDEELEAEFLALVGGQPPALEKLKGKGPLPMEAIEKMASLCMRDPDEDEEEGTDEDDLEADDDLLAELNEVLGEEQKASETPPPVAQPKPEAPHPGLETTLQERLALYQTAIESARQAGDSAKMRRYDRGLKTLENLLASIRKGNAIDEADIPPPVAIGKGPASTPTYSPAPTQPAPRIASAPEPRVTLEGPSATAPASSPGLAKPQMPPGPCSPGPLAQLQSRQRDYKLAALHAKQQGDTTAAARHFRVAKSFDAVLEALSRGEPVDLSCLPPPPDQLPPDPPSPPSQPPTPATAPSTTEVPPPPRTLLEALEQRMERYQVAAAQAKSKGDQRKARMHERIVKQYQDAIRAHKAGRAVDVAELPVPPGFPPIQGLEATKPTQQSLVGVLETAMKLANQDEGPEDEEDEVPKKQNSPVAPTAQPKAPPSRTPQSGSAPTAKAPPKATSTRAQQQLAFLEGRKKQLLQAALRAKQKNDVEGAKMHLRQAKGLEPMLEASRNGLPVDITKVPPAPVNKDDFALVQRPGPGLSQEAARRYGELTKLIRQQHEMCLNHSNQFTQLGNITETTKFEKLAEDCKRSMDILKQAFVRGLPTPTARFEQRTFSVIKIFPDLSSNDMLLFIVKGINLPTPPGLSPGDLDVFVRFDFPYPNVEEAQKDKTSVIKNTDSPEFKEQFKLCINRSHRGFRRAIQTKGIKFEVVHKGGLFKTDRVLGTAQLKLDALEIACEVREILEVLDGRRPTGGRLEVMVRIREPLTAQQLETTTERWLVIDPVPAAVPTQVAGPKGKAPPVPAPARESGNRSARPLHSLSVLAFDQERLERKILALRQARRPVPPEVAQQYQDIMQRSQWQRAQLEQGGVGIRREYAAQLERQLQFYTEAARRLGNDGSRDAAKEALYRRNLVESELQRLRR
B4: Atlastin 3 (ATL3) (protein, UniProt Q6DD88 1-541)
chain: MLSPQRVAAAASRGADDAMESSKPGPVQVVLVQKDQHSFELDEKALASILLQDHIRDLDVVVVSVAGAFRKGKSFILDFMLRYLYSQKESGHSNWLGDPEEPLTGFSWRGGSDPETTGIQIWSEVFTVEKPGGKKVAVVLMDTQGAFDSQSTVKDCATIFALSTMTSSVQIYNLSQNIQEDDLQQLQLFTEYGRLAMDEIFQKPFQTLMFLVRDWSFPYEYSYGLQGGMAFLDKRLQVKEHQHEEIQNVRNHIHSCFSDVTCFLLPHPGLQVATSPDFDGKLKDIAGEFKEQLQALIPYVLNPSKLMEKEINGSKVTCRGLLEYFKAYIKIYQGEDLPHPKSMLQATAEANNLAAAASAKDIYYNNMEEVCGGEKPYLSPDILEEKHCEFKQLALDHFKKTKKMGGKDFSFRYQQELEEEIKELYENFCKHNGSKNVFSTFRTPAVLFTGIVALYIASGLTGFIGLEVVAQLFNCMVGLLLIALLTWGYIRYSGQYRELGGAIDFGAAYVLEQASSHIGNSTQATVRDAVVGRPSMDKKAQ
B5: lysophosphatidylcholine acyltransferase 1 (LPCAT1) (protein, UniProt Q8NF37 1-534)
chain: MRLRGCGPRAAPASSAGASDARLLAPPGRNPFVHELRLSALQKAQVALMTLTLFPVRLLVAAAMMLLAWPLALVASLGSAEKEPEQPPALWRKVVDFLLKAIMRTMWFAGGFHRVAVKGRQALPTEAAILTLAPHSSYFDAIPVTMTMSSIVMKAESRDIPIWGTLIQYIRPVFVSRSDQDSRRKTVEEIKRRAQSNGKWPQIMIFPEGTCTNRTCLITFKPGAFIPGAPVQPVVLRYPNKLDTITWTWQGPGALEILWLTLCQFHNQVEIEFLPVYSPSEEEKRNPALYASNVRRVMAEALGVSVTDYTFEDCQLALAEGQLRLPADTCLLEFARLVRGLGLKPEKLEKDLDRYSERARMKGGEKIGIAEFAASLEVPVSDLLEDMFSLFDESGSGEVDLRECVVALSVVCRPARTLDTIQLAFKMYGAQEDGSVGEGDLSCILKTALGVAELTVTDLFRAIDQEEKGKITFADFHRFAEMYPAFAEEYLYPDQTHFESCAETSPAPIPNGFCADFSPENSDAGRKPVRKKLD
B6: FHOD1 (protein, UniProt Q9Y613 1-1164)
chain: MAGGEDRGDGEPVSVVTVRVQYLEDTDPFACANFPEPRRAPTCSLDGALPLGAQIPAVHRLLGAPLKLEDCALQVSPSGYYLDTELSLEEQREMLEGFYEEISKGRKPTLILRTQLSVRVNAILEKLYSSSGPELRRSLFSLKQIFQEDKDLVPEFVHSEGLSCLIRVGAAADHNYQSYILRALGQLMLFVDGMLGVVAHSDTIQWLYTLCASLSRLVVKTALKLLLVFVEYSENNAPLFIRAVNSVASTTGAPPWANLVSILEEKNGADPELLVYTVTLINKTLAALPDQDSFYDVTDALEQQGMEALVQRHLGTAGTDVDLRTQLVLYENALKLEDGDIEEAPGAGGRRERRKPSSEEGKRSRRSLEGGGCPARAPEPGPTGPASPVGPTSSTGPALLTGPASSPVGPPSGLQASVNLFPTISVAPSADTSSERSIYKARFLENVAAAETEKQVALAQGRAETLAGAMPNEAGGHPDARQLWDSPETAPAARTPQSPAPCVLLRAQRSLAPEPKEPLIPASPKAEPIWELPTRAPRLSIGDLDFSDLGEDEDQDMLNVESVEAGKDIPAPSPPLPLLSGVPPPPPLPPPPPIKGPFPPPPPLPLAAPLPHSVPDSSALPTKRKTVKLFWRELKLAGGHGVSASRFGPCATLWASLDPVSVDTARLEHLFESRAKEVLPSKKAGEGRRTMTTVLDPKRSNAINIGLTTLPPVHVIKAALLNFDEFAVSKDGIEKLLTMMPTEEERQKIEEAQLANPDIPLGPAENFLMTLASIGGLAARLQLWAFKLDYDSMEREIAEPLFDLKVGMEQLVQNATFRCILATLLAVGNFLNGSQSSGFELSYLEKVSEVKDTVRRQSLLHHLCSLVLQTRPESSDLYSEIPALTRCAKVDFEQLTENLGQLERRSRAAEESLRSLAKHELAPALRARLTHFLDQCARRVAMLRIVHRRVCNRFHAFLLYLGYTPQAAREVRIMQFCHTLREFALEYRTCRERVLQQQQKQATYRERNKTRGRMITETEKFSGVAGEAPSNPSVPVAVSSGPGRGDADSHASMKSLLTSRPEDTTHNRRSRGMVQSSSPIMPTVGPSTASPEEPPGSSLPSDTSDEIMDLLVQSVTKSSPRALAARERKRSRGNRKSLRRTLKSGLGDDLVQALGLSKGPGLEV

Each molecule was assayed against LEMD2-APEX2-mCitrine (UniProt Q8NC56) (assay: proximity labelling; APEX2 fusions of LEMD2 or CHMP4B in RPE1 cells after DOX induction of CHMP7^WT (12 h), CHMP7^NLS (6 h) or CHMP7^NES* (3, 6, 9 h); 500 μM biotin-phenol 3 h, 2 mM H2O2 2 min; RIPA lysis, streptavidin magnetic beads, label-free quantitative LC-MS/MS; compared with parental cells without APEX2 fusions).
In the case of B1, the binding is reported as “binds”.
B2 was tested, and the binding was “binds”.
For B3, the binding was “binds”.
For B4, the binding was “binds”.
For B5, the binding was “binds”.
B6 was tested, and the binding was “binds”.

These molecules were tested against T1, CHMP4B-APEX2-mCitrine (UniProt Q9H444) in the same assay as above.
T1 sequence: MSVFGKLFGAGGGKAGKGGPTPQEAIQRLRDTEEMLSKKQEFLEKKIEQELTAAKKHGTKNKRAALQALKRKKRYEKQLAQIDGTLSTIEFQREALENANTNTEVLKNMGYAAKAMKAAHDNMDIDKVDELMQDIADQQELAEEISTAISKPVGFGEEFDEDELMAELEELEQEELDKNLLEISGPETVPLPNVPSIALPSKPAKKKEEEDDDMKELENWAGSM
B1 was tested, and the binding was “binds”.
B2 was tested, and the binding was “binds”.
With B3 the binding was “binds”.
For B4, the binding was “binds”.
B5 was tested, and the binding was “binds”.
B6 was tested, and the binding was “binds”.

What follows are molecules tested against T2, LRRC59-V5-TurboID (human) (UniProt Q96AG4) (assay: proximity labelling; LRRC59-TurboID (TurboID facing the ER lumen) in RPE1 cells; 100 µM biotin 30 minutes at 37 °C; RIPA lysis, streptavidin magnetic beads, immunoblotting).
T2 sequence: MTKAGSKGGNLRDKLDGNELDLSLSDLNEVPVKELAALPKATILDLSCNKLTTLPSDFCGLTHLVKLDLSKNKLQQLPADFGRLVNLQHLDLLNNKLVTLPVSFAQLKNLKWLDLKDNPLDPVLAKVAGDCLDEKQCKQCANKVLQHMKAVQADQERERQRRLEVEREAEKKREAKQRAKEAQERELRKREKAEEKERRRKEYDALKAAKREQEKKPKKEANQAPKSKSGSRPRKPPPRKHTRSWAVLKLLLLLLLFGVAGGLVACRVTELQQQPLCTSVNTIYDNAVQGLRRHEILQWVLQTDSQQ
With Lamin A/C (from UniProt P02545 1-646) the binding was “no binding”.
“endogenous LEMD2 (from UniProt Q8NC56 1-503)” was tested, and the binding was “binds”.
For LBR (from UniProt Q14739 1-615), the binding was “no binding”.
